This is one part of the list. Repeats are few or missing, and single values can be far off.
test system: Plasmodium berghei sporozoites; assay: residual sporozoite gliding motility relative to DMSO control; higher = less inhibition of motility; details: 10 µM; incubation time 30 min
Method: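 GFP-expressing Plasmodium berghei salivary gland sporozoites (about 2000 per well, 384-well plate, RPMI with 3% BSA) were incubated 30 min with MMV Malaria Box compounds at 10 uM, then imaged at 1 Hz for 30 s. Sporozoites moving more than one parasite length were counted manually and expressed as percentage residual motility relative to DMSO controls. The pilot screen was a single assay per compound; apparent hits were repeated up to two more times. 'No observable inhibition' in the pilot screen is encoded as inactive (>50% residual, active false), a coarse placeholder rather than a measured value.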

Row | Structure (SMILES) | residual sporozoite gliding motility [%]
1 | Oc1ccc(C(=C(Cl)Cl)c2ccc(O)cc2)cc1 | > 50
2 | CCOc1c(Cl)cc(CNC(C)C(O)c2ccccc2)cc1OC (stereo unspecified) | > 50
3 | CCOc1cc(CNC(C)C(O)c2ccccc2)cc(Cl)c1OCC (stereo unspecified) | > 50
4 | COc1ccc(CN2CCN(Cc3ccccc3)CC2)c(O)c1 | > 50
5 | CCCCCCc1cc(O)c2c3c(c(=O)oc2c1)CCC(C)C3 (stereo unspecified) | > 50
6 | CCCc1cc(O)c2c3c(c(=O)oc2c1)CN(C)CC3 | > 50
7 | COc1cc(CNCCc2ccc(Cl)cc2)cc(OC)c1O | > 50
8 | O=C(CCc1ccco1)NC1CCN(CC2(c3ccc(Cl)cc3)CCC2)CC1 | > 50
9 | Oc1ccc(Br)cc1CN1CCN(Cc2cccc(F)c2)CC1 | > 50
10 | CN(N=O)C1=C(NC2CCCCC2)C(=O)c2ccccc2C1=O | > 50
11 | Oc1ccc(Br)cc1CN1CCN(Cc2ccc(Cl)cc2)CC1 | > 50

Reprinted at random: two records from the list.
Row | Structure (SMILES) | residual sporozoite gliding motility [%]
6 | CCCc1cc(O)c2c3c(c(=O)oc2c1)CN(C)CC3 | > 50
3 | CCOc1cc(CNC(C)C(O)c2ccccc2)cc(Cl)c1OCC (stereo unspecified) | > 50
